At least one compound was matched to its structure with a doubt left.
Assays:
HUVECs = assay: Endothelial barrier function: transendothelial electrical resistance (TER); type: cell-based, human; conditions: 1 μM, alone
Protocol: In Examples 4 to 6, human umbilical vein endothelial cells (hereinafter, sometimes referred to as “HUVECs”, manufactured by Lonza) were cultured in EGM-2 (manufactured by Lonza K.K.). These cells (passages 4 to 9) were used for experiments after 4-hour starvation in EBM-2 (manufactured by Lonza K.K.) containing 2% FBS.
The in vitro endothelial barrier function was evaluated by measuring the transendothelial electrical resistance (hereinafter, sometimes referred to as “TER”) of the HUVECs prepared in the above item (1) over time. Specifically, the transendothelial electrical resistance was measured using an xCELLigence Real-Time Cell Analyzer DP system (manufactured by Roche). The system monitors changes in TER across an interdigitated microelectrode at the bottom of tissue culture E-plates (manufactured by Roche). The HUVECs (8,000 cells) were plated on the E-plates and incubated until confluent. Then, the following operation (a) or (b) was performed.
(a) Each reagent was added to plates on which the HUVECs were cultured, so as to give a vehicle, 1 U/mL thrombin, 1 μM forskolin, or 0.1 μM or 0.3 μM 5,6-DiHETE (FIGS. 4A and 4B). […]
In the above operations (a) and (b), the TER was measured every 60 seconds. […] The maximum normalized cell index after stimulation was quantified and represented as maximal response. […]

mouse aortae = assay: Measurement of vascular contraction of aorta (aortic ring specimens); conditions: precontraction 0.3 μM norepinephrine; cumulative 0.03, 0.1, 0.3 and 1 μM
Protocol: After excision of the thoracic aortae from untreated mice and removal of fat and connective tissue, the aortae were cut into rings to prepare aortic ring specimens. The ring specimens were immersed in a liquid tank filled with a normal nutrient solution (physiological saline solution containing 136.9 mM NaCl, 5.4 mM KCl, 5.5 mM glucose, 23.8 mM NaHCO3, 1.5 mM CaCl2, 1.0 mM MgCl2 and 0.01 mM EDTA), and two stainless hooks were penetrated through the lumens of the ring specimens. One end of each of the stainless hooks was fixed, and the other end thereof was connected to a force-displacement transducer (T7-30-240, manufactured by Orientec Co., Ltd.) connected to a strain amplifier (3134 strain AMPL, manufactured by Yokogawa Test & Measurement Corporation). Then, the following operation (a), (b) or (c) was performed.
(a) Norepinephrine (manufactured by Sigma) was cumulatively added into the liquid tank containing the ring specimens after stabilization of each contraction (every about 30 minutes) so as to attain 0.001 μM, 0.01 μM, 0.1 μM and 1 μM, and this group was designated as a “norepinephrine-administered group” (n=4) (FIG. 3A). […]
In the above operations (a) to (c), tension (contractile force) generated in the aortic ring specimens was measured isometrically over time using the above force-displacement transducer under a resting tension of 3 mN, and recorded.

Structure (SMILES): C=C[C@@]1(C)CC(=O)[C@]2(O)[C@@]3(C)[C@@H](O)CCC(C)(C)[C@@H]3[C@H](O)[C@H](OC(C)=O)[C@@]2(C)O1 [forskolin, reference compound]
- change of TER (HUVECs): increased the TER

Structure (SMILES): CC(=O)OCC[N+](C)(C)C [acetylcholine, reference compound]
- effect on aorta precontracted by norepinephrine (mouse aortae): dilated, in a dose-dependent manner

— patent US12285434B2, “Therapeutic, preventive, or improvement agent for inflammatory disease and allergic disease” (The University of Tokyo, priority 2018, dated 2025)
